± gives the standard deviation of the averaged measurements. Most values lie at the level of the controls, where differences are scatter.
Tests used:
Assay in all cases: level (log10 ratio to DMSO vehicle control); higher = higher biomarker level / cell amount than vehicle control
[1] = compound: O=C(O)C(F)(F)C(F)(F)C(F)(F)C(F)(F)C(F)(F)C(F)(F)C(F)(F)C(F)(F)F [Perfluorononanoic acid]; settings: 2200 nM; in DMSO
Method: (§1)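 BioMAP Diversity Plus panel of 12 human primary cell co-culture systems (3C, 4H, LPS, SAg, BT, BF4T, BE3C, CASM3C, HDF3CGF, KF3CT, MyoF, Mphg). Compounds were added 1 h before stimulation and left for 24 h (MyoF 48 h; BT 72 h for soluble read-outs or 6 d for IgG). Biomarkers were read by ELISA, cytotoxicity by SRB, PBMC viability and proliferation by Alamar Blue. Each well value was divided by the mean of 8 DMSO control wells on the same plate and log10 transformed; duplicate blinded samples were tested at 4 concentrations.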

[2] = compound: C=CC(=O)OCC(F)(F)C(F)(F)C(F)(F)C(F)(F)C(F)(F)C(F)(F)C(F)(F)C(F)F [1H,1H,9H-Perfluorononyl acrylate]; settings: 2200 nM; in DMSO
Method: as §1

[3] = compound: O=C(CC(=O)C(F)(F)C(F)(F)C(F)(F)F)c1cccs1 [(Perfluorobutyryl)-2-thenoylmethane]; settings: 2200 nM; in DMSO
Method: as §1

[4] = compound: OCC(F)(F)OC(F)(F)C(F)(F)OC(F)(F)C(F)(F)OC(F)(F)CO [1H,1H,11H,11H-Perfluorotetraethylene glycol]; settings: 2200 nM; in DMSO
Method: as §1

[5] = compound: O=C(O)C(F)(F)OC(F)(F)C(F)(F)OC(F)(F)C(F)(F)OC(F)(F)C(F)(F)C(F)(F)C(F)(F)F [Perfluoro-3,6,9-trioxatridecanoic acid]; settings: 2200 nM; in DMSO
Method: as §1

[6] = compound: OCC(F)(F)C(F)(F)C(F)(F)C(F)(F)C(F)(F)C(F)(F)C(F)(F)C(F)(F)CO [1H,1H,10H,10H-Perfluorodecane-1,10-diol]; settings: 2200 nM; in DMSO
Method: as §1

[7] = compound: O=C(O)C(F)(F)C(F)(F)C(F)(F)C(F)(F)C(F)(F)C(F)(F)C(F)(F)F [Perfluorooctanoic acid]; settings: 2200 nM; in DMSO
Method: as §1

[8] = compound: CCOC(=O)CC(=O)C(F)(F)C(F)(F)F [Ethyl pentafluoropropionyl acetate]; settings: 2200 nM; in DMSO
Method: as §1

[9] = compound: O=C(O)CCC(F)(C(F)(F)F)C(F)(F)F [4,4-bis(Trifluoromethyl)-4-fluoropropanoic acid]; settings: 2200 nM; in DMSO
Method: as §1

[10] = compound: O=C(O)C(F)(F)OC(F)(F)C(F)(F)OC(F)(F)F [Perfluoro-3,6-dioxaheptanoic acid]; settings: 2200 nM; in DMSO
Method: as §1

[11] = compound: O=C(O)C(F)(F)C(F)(F)C(F)(F)C(F)(F)C(F)(F)C(F)(F)C(F)(F)F [Ammonium perfluorooctanoate]; settings: 2200 nM; in DMSO
Method: as §1

[12] = compound: O=C(O)C(F)(F)C(F)(F)C(F)(F)C(F)(F)C(F)(F)C(F)(F)C(F)(F)C(F)(F)C(F)(F)F [Perfluorodecanoic acid]; settings: in DMSO
Method: as §1

[13] = compound: FC(F)(F)C(F)(F)C(F)(F)C(F)(F)C(F)(F)C(F)(F)C(F)(F)C(F)(F)CCS [2-(Perfluorooctyl)ethanthiol]; settings: in DMSO
Method: as §1

[14] = compound: N=C(N)C(F)(F)C(F)(F)C(F)(F)C(F)(F)C(F)(F)C(F)(F)C(F)(F)F [Perfluorooctanamidine]; settings: in DMSO
Method: as §1

Test System | level (log10) [1] | level (log10) [2] | level (log10) [3] | level (log10) [4] | level (log10) [5] | level (log10) [6] | level (log10) [7] | level (log10) [8] | level (log10) [9] | level (log10) [10] | level (log10) [11] | level (log10) ([12]; 2200 nM) | level (log10) ([12]; 6700 nM) | level (log10) ([12]; 20000 nM) | level (log10) ([13]; 740 nM) | level (log10) ([13]; 2200 nM) | level (log10) ([14]; 2200 nM) | level (log10) ([14]; 6700 nM) | level (log10) ([14]; 20000 nM) | level (log10) ([14]; 60000 nM)
BE3C:MMP-1 | -0.003 ± 0.034 | -0.003 ± 0.045 | 0.0275 ± 0.005 | 0.014 ± 0.0099 | 0.099 ± 0.024 | 0.033 ± 0.0028 | 0.0325 ± 0.07 | 0.004 ± 0.052 | 0.0385 ± 0.05 | -0.03 ± 0.059 | 0.013 ± 0.0085 | 0.021 ± 0.041 | 0.211 ± 0.041 | -0.4875 ± 0.0035 | 0.033 ± 0.048 | 0.01 ± 0.03 | 0.0585 ± 0.0064 | 0.0525 ± 0.03 | 0.057 ± 0.044 | 0.262
LPS:CD40 | 0.0135 ± 0.023 | -0.015 ± 0.031 | 0.0035 ± 0.023 | -0.0495 ± 0.00071 | -0.0275 ± 0.067 | -0.0055 ± 0.005 | -0.0025 ± 0.0078 | 0.008 ± 0.0071 | 0.056 ± 0.0057 | -0.005 ± 0.02 | 0.052 ± 0.071 | 0.038 ± 0.11 | -0.015 ± 0.16 | -0.0235 ± 0.12 | 0.0345 ± 0.03 | 0.0075 ± 0.0092 | -0.007 ± 0.021 | -0.0145 ± 0.04 | -0.0525 ± 0.021 | -0.148
LPS:M-CSF | -0.029 ± 0.014 | 0.0165 ± 0.016 | -0.041 ± 0.099 | 0.0155 ± 0.08 | 0.005 ± 0.024 | 0.0285 ± 0.012 | 0.036 ± 0.041 | 0.026 ± 0.0099 | -0.0285 ± 0.039 | -0.0245 ± 0.043 | 0.014 ± 0.0071 | -0.0135 ± 0.021 | -0.0015 ± 0.015 | -0.0045 ± 0.018 | -0.013 ± 0.031 | 0.008 ± 0.011 | 0.0085 ± 0.012 | -0.0045 ± 0.0078 | -0.011 ± 0.03 | -0.068
HDF3CGF:TIMP-1 | -0.0405 ± 0.037 | -0.033 ± 0.073 | 0.0555 ± 0.0021 | 0.005 ± 0.079 | -0.018 ± 0.0057 | 0.0065 ± 0.08 | -0.0085 ± 0.047 | -0.016 ± 0.033 | -0.0265 ± 0.015 | -0.017 ± 0.018 | 0.0055 ± 0.0092 | 0.017 ± 0.03 | 0.016 ± 0.037 | -0.0995 ± 0.03 | 0.0035 ± 0.0035 | 0.0055 ± 0.032 | 0.028 | 0.013 ± 0.042 | 0.018 ± 0.05 | 0.092
KF3CT:PAI-I | 0.012 ± 0.016 | 0.008 ± 0.058 | -0.0165 ± 0.0078 | -0.008 ± 0.0099 | -0.023 ± 0.016 | 0.016 ± 0.0071 | -0.004 ± 0.016 | -0.012 ± 0.067 | -0.009 ± 0.016 | 0.0165 ± 0.057 | -0.0045 ± 0.0021 | -0.011 ± 0.013 | -0.0365 ± 0.023 | -0.144 ± 0.042 | -0.0175 ± 0.0035 | -0.0215 ± 0.0021 | 0 ± 0.024 | -0.001 ± 0.033 | -0.017 ± 0.044 | -0.008
BE3C:CXCL11/I-TAC | 0.0055 ± 0.029 | 0.009 ± 0.023 | 0.0155 ± 0.0021 | -0.0155 ± 0.019 | 0.046 ± 0.031 | -0.009 ± 0.0057 | -0.0105 ± 0.04 | -0.011 ± 0.027 | 0.0105 ± 0.0035 | 0.0055 ± 0.018 | 0.0105 ± 0.0078 | 0.0175 ± 0.011 | -0.0405 ± 0.021 | -0.849 ± 0.028 | 0.0065 ± 0.04 | 0.015 ± 0.048 | -0.0085 ± 0.022 | -0.0055 ± 0.0078 | -0.014 ± 0.016 | -0.014
BF4T:IL-1alpha | -0.0095 ± 0.0078 | 0.013 ± 0.013 | -0.005 ± 0.03 | 0.018 ± 0.0099 | -0.0135 ± 0.026 | 0.014 ± 0.044 | 0.0105 ± 0.012 | 0.0225 ± 0.064 | 0.003 ± 0.034 | -0.02 ± 0.0099 | -0.0175 ± 0.0035 | -0.004 ± 0.013 | -0.0335 ± 0.0035 | -0.247 ± 0.28 | -0.026 ± 0.021 | -0.027 ± 0.027 | 0.0105 ± 0.0092 | -0.003 ± 0.0085 | -0.017 ± 0.0014 | 0.042
BT:sTNF-alpha | -0.0495 ± 0.019 | 0.0185 ± 0.2 | 0.142 ± 0.018 | -0.113 ± 0.028 | 0.0375 ± 0.036 | 0.027 ± 0.21 | 0.199 ± 0.016 | -0.153 ± 0.16 | 0.116 ± 0.012 | 0.0375 ± 0.033 | -0.047 ± 0.12 | 0.0195 ± 0.069 | 0.0625 ± 0.047 | 0.018 ± 0.0099 | -0.0095 ± 0.079 | 0.0255 ± 0.18 | 0.126 ± 0.0014 | 0.102 ± 0.099 | 0.0345 ± 0.084 | 0.01
3C:CXCL9/MIG | -0.004 ± 0.0014 | -0.003 ± 0.0099 | -0.009 ± 0.018 | -0.007 ± 0.023 | -0.007 ± 0.016 | -0.003 ± 0.0042 | 0.007 ± 0.017 | -0.0055 ± 0.011 | 0.0105 ± 0.0078 | -0.0045 ± 0.0092 | -0.0035 ± 0.019 | -0.006 ± 0.014 | 0.002 | 0.0005 ± 0.0064 | -0.0185 ± 0.00071 | 0.0015 ± 0.013 | 0.009 ± 0.0028 | 0.007 ± 0.0071 | -0.0165 ± 0.0035 | 0.005
HDF3CGF:SRB | 0.0145 ± 0.033 | 0.0175 ± 0.012 | 0.0395 ± 0.005 | -0.044 ± 0.027 | 0.0185 ± 0.0035 | -0.011 ± 0.0099 | -0.02 ± 0.0042 | 0.0155 ± 0.052 | -0.0445 ± 0.032 | -0.007 ± 0.025 | 0.0425 ± 0.059 | 0.06 ± 0.0071 | 0.0725 ± 0.044 | 0.131 ± 0.016 | -0.007 ± 0.028 | -0.0045 ± 0.0078 | -0.037 ± 0.023 | -0.01 ± 0.017 | 0.0155 ± 0.0035 | -0.048
3C:CD142/Tissue Factor | -0.012 ± 0.04 | 0 ± 0.047 | 0.0025 ± 0.016 | -0.012 ± 0.092 | 0.0065 ± 0.044 | -0.0315 ± 0.013 | 0.053 ± 0.028 | 0.0115 ± 0.013 | -0.013 ± 0.013 | -0.018 ± 0.048 | 0.011 ± 0.011 | -0.013 ± 0.023 | -0.013 ± 0.013 | -0.029 ± 0.0042 | -0.084 ± 0.069 | -0.055 ± 0.031 | -0.0345 ± 0.0064 | -0.02 ± 0.018 | -0.0105 ± 0.012 | -0.014
LPS:SRB | 0.0075 ± 0.0064 | 0.006 ± 0.0014 | -0.003 ± 0.0014 | 0.002 ± 0.0071 | 0.004 ± 0.013 | 0.003 ± 0.024 | -0.007 ± 0.0057 | 0.007 ± 0.0071 | 0.0055 ± 0.019 | -0.0045 ± 0.0021 | -0.004 ± 0.011 | 0.011 ± 0.0071 | 0.01 ± 0.0071 | 0.003 ± 0.0042 | 0.004 ± 0.025 | 0.0025 ± 0.0064 | -0.008 ± 0.0042 | -0.005 ± 0.0085 | 0.006 ± 0.011 | -0.035

From the supplement of paper PMC10331698
